{"source": "patent US20250163052A1", "about": "“cGAS INHIBITORS AND USES THEREOF” (Cornell University, priority 2022, published 2025)", "key": {"[1]": {"experiment": "Metabolic stability in human liver microsomes"}, "[2]": {"experiment": "Metabolic stability in mouse liver microsomes"}}, "data": [{"smiles": "CCCNCC(O)COc1ccccc1C(=O)CCc1ccccc1", "note": "(stereo not drawn) [Propafenone, reference compound]", "values": [{"measurement": "Remaining (NCF = 60 min)", "setting": "[1]; 60 min, no co-factor (no NADPH)", "value": 117.3, "unit": "%"}, {"measurement": "Remaining (T = 60 min)", "setting": "[1]; 60 min with NADPH", "value": 0.0, "unit": "%"}, {"measurement": "Remaining (NCF = 60 min)", "setting": "[2]; mouse liver microsomes, 60 min, no co-factor (no NADPH)", "value": 103.5, "unit": "%"}, {"measurement": "Remaining (T = 60 min)", "setting": "[2]; mouse liver microsomes, 60 min with NADPH", "value": 0.0, "unit": "%"}, {"measurement": "CLint scaled", "setting": "[2]; mouse, liver microsomes", "value": 185, "unit": "L/h/kg"}, {"measurement": "microsomal CLint", "setting": "[2]; mouse, liver microsomes", "value": 777, "unit": "µL/min/mg"}]}]}
